Where a chain is given by its changes, count along the chain named. These are yes or no findings as the source states them, for the method shown. Some results given as binding are weak or reduced against the parent protein; the word gives no strength.
B1: anti-TrkB clone 3A05 (antibody, V domains shown)
VH: QVQLVESGAEVKKPGESLKISCKGSGYSFTTYWIAWVRQMPGKGLEWMGIIYPGDSDTRYSPSFQGQVTISADKSISTAYLQWSSLKASDTAMYYCARLGGGMDVWGQGTMVTVSS
VL: QAGLTQPPSASGTPGQRVTISCSGSSSNIGSNTVSWYRQIPGTAPKFLLYGNNQRPSGVPARFSGSKSGTSASLAVDGLQSDDEADYYCAAWDDSLSGYVFGTGTKLTVL
B2: anti-TrkB clone 2E02 (antibody, V domains shown)
VH: QVQLQQSGPGLVKPSQTLSVTCVISGDSVSSKSAAWHWIRQSPSRGLEWLGRTYYRSKWYSDYGESVKSRVVINADTSNNQISLQLSSVTPEDTAAYYCARGIGSLNFDIWGQGTMVTVSS
VL: QSVLTQPPSASGSPGQSVTISCTGTSGDVGGYNYVSWYQQHPGKAPKLILYEVTKRPSGVPDRFSGSKSGNTASLTVSGLQAEDEADYYCSSYGGPNNLVLFGGGTKVTVL
B3: anti-TrkB clone 2C07 (antibody, V domains shown)
VH: QVQLQQSGGGVVQPGRSLRLSCAASGFTFSNYAMHWVRQAPGKGLEWVAVISYDGSNEYYADSVKGRFTISRDNSRNTLDLQMNSLRAEDTAVYYCARGTNYGMDVWGQGTMVTVSS
VL: LSELTQDPAVSVALGQTVRITCQGDSLRSYYASWYQQKPGQAPVLVIYGKNNRPSGIPDRFSGSDSGKTASLTITGAQAEDEADYYCQSRDTTGNYLLFGGGTKLTVL
B4: anti-TrkB clone 4G12 (antibody, V domains shown)
VH: B1 VH with Q1E, E6Q, T31S, A35G, L99H, G100D, G101Y, M111T
VL: QSVLTQPPSVSVSPGQTASITCSGDKLGDKFASWYQQKPGQSPVLVIYQDNKRPSRVPERFSGSNSGNTATLTISETQAMDEADYYCQAWVNNTVVFGGGTKVTVL
B5: anti-TrkB clone 4F03 (antibody, V domains shown)
VH: EVQLVQSGAEVKKPGESLKISCKGSGYSFTSYWIGWVRQMPGKGLEWMGIIYPGDSDTRYSPSFQGQVTISADKSISTAYLQWSSLKASDTAMYYCASWGMDVWGQGTLVTVSS
VL: QPVLTQPPSASGTPGQRVTISCSGSSSNIGTHTVNWYQQFPGTAPKLLMYSTFQRPSGVPDRFSGSKSGTSASLAISGLQSEDEADYYCAAWDDSLNGPVFGGGTQLTVL
B6: anti-TrkB clone 3F09 (antibody, V domains shown)
VH: EVQLVQSGAEVKKPGESLKISCKGSGYSFTSYWIGWVRQMPGKGLEWMGIIYPGDSDTRYSPSFQGQVTISADKSISTAYLQWSSLKASDTAMYYCVVRPAAAGTRIDYWGQGTLVTVSS
VL: QSVLTQPPSVSVSPGQTASITCSGDKLGDKYASWYQQKPGQSPVLIIYQDNKRPSGIPERFSGSNSGNTATLTISGTQAMDEADYYCQAWDSSTYVFGTGTKLTVL
B7: anti-TrkB clone 5C01 (antibody, V domains shown)
VH: QMQLVQSGAEVKKPGESLKISCKGSGYSFTSYWIGWVRQMPGKGLEWLGIIYPGDSDTRYSPSFQGQVTISADKSISTAYLQWSSLKASDTAMYYCARLGQGSGPFDYWGQGTLVTVSS
VL: QSVVTQPPSVSGTPGQRVSISCSGSSSNIGSHSVTWFQQLPGTAPKLLIYGNSQRPSGVPDRFSGSKSGTSASLAISGLQSEDEADYYCASWDDSLNGYVFGTGTKLTVL
B8: anti-TrkB clone 1E02 (antibody, V domains shown)
VH: QVQLLQSAAEVKKPGESLKISCKGSGYRFTSYWIGWVRQMPGKGLEWVGIIYPDDSDTRYSPSFQGQVTISADTSISTTYLQWSSLKASDTAIYYCASGEVAFDVWGQGTTVTVSS
VL: B6 VL with V10L, G15R, Y31F, A32V, I46V, N51T, Y95G, T99G
B9: anti-TrkB clone 5A07 (antibody, V domains shown)
VH: B1 VH with E6Q, T31S, A35G, L99H, G100D, G101Y
VL: LPVLTQPPSASGTPGQRVTISCSGSRSNVGGNTVSWYQQLPGSAPKLLIYTNNQRPSGVPDRFSGSKSGTSASLAISGLQSEDEADYYCAAWDDSLNGYVFGTGTQLTVL
B10: anti-TrkB clone 3B09 (antibody, V domains shown)
VH: EVQLVQSGAEVKKPGESLKISCKGSGYSFTSYWIGWVRQMPGKGLEWMGIIYPGDSDTRYSPSFQGQVTISADKSISTAYLQWSSLKASDTAMYYCATPMEDGMDVWGQGTTVTVSS
VL: QAGLTQPPSVSVSPGQTVTITCSADNLGDKYTSWYQQRPGQSPVLVIYQDTKRPSGIPARFSGSNSGNTATLTISGTQAMDEADYYCQAWDSSTGVFGTGTKVTVL
B11: anti-TrkB clone 6F04 (antibody, V domains shown)
VH: B1 VH with Q1E, E6Q, T31S, A35G, L99G, G100S, M103Y, V105Y, M111L
VL: QSVLTQPPSVSVSPGQTASITCSGNKLGDKFVSWYHQRPGQSPVLVIYEDNKRPSGIPERFSGSNSGNTATLTISGTQAMDEGDYYCQTWDVSSYVFGTGTKVTVL
B12: anti-TrkB clone 6B04 (antibody, V domains shown)
VH: B1 VH with E6Q, T31S, A35G, M93I, G102A, M111L
VL: SYELMQPPSLSVSPGQTASITCSGDKLGDKYVSWYQQRPGQSPVLVMYQDKKRPSGIPKRFSGSNSGNTATLTISGTQAMDEADYYCAAWDDSLNGYYVFGTGTQLTVL
B13: anti-TrkB clone 1F01 (antibody, V domains shown)
VH: B2 VH with S15A, V20L, V23D
VL: QSVVTQPASVSGSPGQSITISCTGTSSDIGGYDYVSWYQQHPGKAPKLMIFDVSNRPSGVSNRFSGSKSGNTASLTISGLQADDEADYYCSSYRAGSTLNLLFGGGTKLTVL
B14: anti-TrkB clone 3C12 (antibody, V domains shown)
VH: QVQLVQSGAEVKKPGESLKISCKGSGYSFTSYWIGWVRQMPGKGLEWMGIIYPGDSDTRYSPSFQGQVTISADKSISTAYLQWSSLKASDTAMYYCTRSSFNDHWGQGTLVTVSS
VL: QPVLTQPPSVSVSPGQTASITCSGDKLGNKFVSWFQQKPGQSPVLVIYQDTKRPSGIPERFSGSNSGSTATLTITGTQAMDDADYYCQAWNTNTALFGGGTKLTVL
B15: anti-TrkB clone 3H11 (antibody, V domains shown)
VH: QVQLQQSGPGLVKPSQTLSLTCAISGDSVSSNSAVWNWIRQSPSRGLEWLGRTYYRSKWYTDFAVSVKSRITINPDTSKNQFSLQLNSVTPEDTAVYYCARGRNGMDVWGQGTMVTVST
VL: LPVLTQPPSASGTPGQRVTISCSGSSSNIGHKYVYWYQQLPGAAPKLLIYRNNQRPSGVPDRFSASKSGTSASLAISGLRSEDEADYYCATWDDSLNGVVFGGGTKVTVL

By UniProt entry, the sequences of proteins in these tests, tags left out. Where a name states a change or a piece, a line headed by the entry shows the natural chain unless it says otherwise. Residues count along the entry.
UniProt Q16620: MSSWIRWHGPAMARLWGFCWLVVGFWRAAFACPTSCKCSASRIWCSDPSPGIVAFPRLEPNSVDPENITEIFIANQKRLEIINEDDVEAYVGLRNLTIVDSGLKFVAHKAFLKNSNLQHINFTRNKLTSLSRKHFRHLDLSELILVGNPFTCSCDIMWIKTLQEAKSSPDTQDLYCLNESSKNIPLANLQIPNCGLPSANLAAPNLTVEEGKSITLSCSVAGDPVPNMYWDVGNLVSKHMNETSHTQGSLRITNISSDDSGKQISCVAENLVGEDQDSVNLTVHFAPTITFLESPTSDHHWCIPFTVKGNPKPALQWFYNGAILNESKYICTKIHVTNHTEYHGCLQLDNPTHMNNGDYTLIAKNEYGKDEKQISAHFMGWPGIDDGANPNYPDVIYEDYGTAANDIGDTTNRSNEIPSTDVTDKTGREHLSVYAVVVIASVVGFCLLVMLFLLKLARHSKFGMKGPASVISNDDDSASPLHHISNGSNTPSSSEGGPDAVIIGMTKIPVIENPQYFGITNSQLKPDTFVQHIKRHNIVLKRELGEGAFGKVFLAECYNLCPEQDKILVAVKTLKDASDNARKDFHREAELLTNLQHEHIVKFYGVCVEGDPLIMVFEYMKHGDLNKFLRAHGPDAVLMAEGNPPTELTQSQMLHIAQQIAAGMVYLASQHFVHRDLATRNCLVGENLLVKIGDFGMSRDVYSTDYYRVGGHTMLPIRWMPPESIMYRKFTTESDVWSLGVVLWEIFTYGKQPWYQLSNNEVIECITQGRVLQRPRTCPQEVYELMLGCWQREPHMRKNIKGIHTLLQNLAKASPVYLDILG
UniProt P15209, residues 32-821: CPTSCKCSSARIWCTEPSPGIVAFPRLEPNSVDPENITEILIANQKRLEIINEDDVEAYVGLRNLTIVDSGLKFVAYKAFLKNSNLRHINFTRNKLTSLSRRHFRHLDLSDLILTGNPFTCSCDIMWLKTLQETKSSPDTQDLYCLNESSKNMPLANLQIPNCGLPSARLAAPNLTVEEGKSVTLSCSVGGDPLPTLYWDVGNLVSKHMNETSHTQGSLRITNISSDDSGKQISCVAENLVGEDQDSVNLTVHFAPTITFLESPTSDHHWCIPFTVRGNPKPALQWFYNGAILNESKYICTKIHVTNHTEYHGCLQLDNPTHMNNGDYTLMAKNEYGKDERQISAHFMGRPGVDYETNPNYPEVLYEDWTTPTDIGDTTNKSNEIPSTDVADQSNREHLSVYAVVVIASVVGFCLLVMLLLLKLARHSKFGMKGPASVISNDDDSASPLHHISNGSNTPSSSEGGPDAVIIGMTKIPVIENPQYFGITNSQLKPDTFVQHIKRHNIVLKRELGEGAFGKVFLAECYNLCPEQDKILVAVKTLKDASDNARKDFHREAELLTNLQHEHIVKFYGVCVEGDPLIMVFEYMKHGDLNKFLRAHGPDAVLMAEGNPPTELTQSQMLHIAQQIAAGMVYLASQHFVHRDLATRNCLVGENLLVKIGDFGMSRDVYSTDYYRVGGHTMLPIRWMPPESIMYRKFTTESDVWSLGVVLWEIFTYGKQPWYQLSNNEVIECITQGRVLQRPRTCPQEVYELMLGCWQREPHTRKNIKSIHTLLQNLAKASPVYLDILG

What follows are binders tested against human TrkB on CHO-K1 cells (human) (UniProt Q16620) (assay: flow cytometry).

| Binder | binding |
| --- | --- |
| B1 | binds |
| B2 | binds |
| B3 | binds |
| B4 | binds |
| B5 | binds |
| B6 | binds |
| B7 | binds |
| B8 | binds |
| B9 | binds |
| B10 | binds |
| B11 | binds |
| B12 | binds |

These binders were tested against mouse TrkB on CHO-K1 cells (mouse) (UniProt P15209) (assay: flow cytometry).

| Binder | binding |
| --- | --- |
| B1 | binds |
| B2 | binds |
| B13 | binds |
| B3 | binds |
| B14 | binds |
| B4 | binds |
| B7 | binds |
| B8 | binds |
| B9 | binds |
| B10 | binds |
| B11 | binds |
| B15 | binds |

Source: patent publication US20260092121A1
